In US20200181255A1 (Amgen, published 2020) one finds binding data, which are given here for 3 molecules.

No constants are given. Whether binding was seen depends on the method and setting. Some results given as binding are weak or reduced against the parent protein; the word gives no strength.

Experiment [1] deals with T1, recombinant human IL-23 (human, UniProt Q9NPF7 20-189; P29460 23-328).
T1 sequence 1: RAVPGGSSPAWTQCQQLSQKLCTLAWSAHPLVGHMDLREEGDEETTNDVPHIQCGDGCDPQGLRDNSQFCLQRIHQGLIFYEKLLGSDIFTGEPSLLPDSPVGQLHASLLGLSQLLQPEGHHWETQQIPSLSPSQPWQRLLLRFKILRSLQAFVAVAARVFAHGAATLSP
T1 sequence 2: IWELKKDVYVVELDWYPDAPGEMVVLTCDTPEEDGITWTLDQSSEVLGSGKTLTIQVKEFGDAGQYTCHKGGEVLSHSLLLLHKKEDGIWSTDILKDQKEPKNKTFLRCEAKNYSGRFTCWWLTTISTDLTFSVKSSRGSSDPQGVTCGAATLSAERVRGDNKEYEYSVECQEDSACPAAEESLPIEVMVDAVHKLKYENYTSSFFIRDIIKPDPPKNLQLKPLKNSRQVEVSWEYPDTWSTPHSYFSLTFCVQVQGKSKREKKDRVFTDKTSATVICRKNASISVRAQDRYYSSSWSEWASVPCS
In words: KinExA. A general note: A kinetic exclusion assay measures how much of one partner remains free in solution.

In experiment [2] the target is recombinant human IL-23 (human) (UniProt Q9NPF7). In words: KinExA.

B1: Antibody L (antibody, V domains shown)
VH: QVQLVESGGGVVQPGRSLRLSCAASGFTFSSYAMHWVRQAPGKGLEWLSVISHDGSIKYYADSVKGRFTISRDNSKNTLYLQMNSLRAEDTAVYYCARERTTLSGSYFDYWGQGTLVTVSS
VL: QAVLTQPSSLSASPGASASLTCTLRSGINVGTYRIYWYQQKPGSPPQYLLRYKSDSDKQQGSGVPSRFSGSKDASANAGILLISGLQSEDEADYYCMIWHSSASVFGGGTKLTVL
notes: also called VH4/VL4
In the case of B1, the binding result in experiment [1] is given as “binds”.

B2: Antibody B (antibody, V domains shown)
VH: QVQLQESGPGLVKPSQTLSLTCTVSGGSISSGGYYWSWIRQHPGKGLEWIGHIHYSGNTYYNPSLKSRVTISVDTSKNQFSLKLSSVTAADTAVYYCAKNRGFYYGMDVWGQGTTVTVSS
VL: DIQMTQSPSSVSASVGDRVTITCRASQVISSWLAWYQQKPGKAPSLLIYAASSLQSGVPSRFSGSVSGTDFTLTISSLQPEDFATYYCQQANSFPFTFGPGTKVDFK
notes: also called VH9/VL9
Regarding B2, the binding result in experiment [2] is reported as “binds”.

B3: Antibody G (antibody, V domains shown)
VH: QVQLQESGPRLVKPSETLSLTCTVSGDSISSYFWSWIRQPPGKGLEWLGYIYYSGSTNYNPSLKSRVTISIDTSKNQFSLKLSSVTAADTAVYYCTRDRGSYYGSDYWGQGTLVTVSS
VL: DIQMTQSPSSVSASVGDRVTITCRAGQVISSWLAWYQQKPGKAPKLLIYAASSLQSGVPSRFSGSGSGTDFTLTISSLQPDDFATYYCQQATSFPLTFGGGTKVEIK
notes: also called VH12/VL12
B3: the binding entry in experiment [1] is given as “binds”.
